# Measured values from PubChem BioAssay AID445 (National Center for Advancing Translational Sciences (NCATS), 2006).
# The list shows a part of the results. The main result of the screen is listed elsewhere. These columns were measured beside it and carry no call. Compounds called inactive in the main read-out are mostly missing here. The note in brackets gives the kind of curve behind each potency; many fits are weak.
# Test: IkB Signaling
# Details: ABC-DLBCL IkBa-CBG/CBR dual luciferase ratio (green luciferase fused to IkBa over red control in OCI-Ly3 lymphoma cells), 4 h
# In short: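 Luminescence ratio of IκBα-fused green versus native red beetle luciferase in OCI-Ly3 cells, 4 h post-doxycycline with compound; red signal alone, scaled from basal (0%) to zero light (-100%), flagged nonspecific or cytotoxic effects.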
# [1] = measured here: control luc red channel unless noted
smiles,measurement,setting,value
CCCCC(=O)Oc1ccc2oc(-c3ccc(OC)cc3)cc(=O)c2c1,AC50,[1],"39.8 µM [falling, single point]"
CCCCCCCCCCCCCCCCCC(=O)O[C@H](CC(=O)O)C[N+](C)(C)C,AC50,[1],"7.94 µM [falling, full curve, poor fit] [measured here: IkB-luc green channel]"
CCn1c(SCC(=O)Nc2ccc(N3CCOCC3)c(Cl)c2)nnc1-c1ccc(N)cc1,AC50,[1],"20 µM [falling, partial curve]"
C=CCn1c(SCC(=O)c2ccc(O)c(O)c2)nnc1-c1ccccc1OC,AC50,[1],"7.94 µM [falling, partial curve]"
CCCc1cc(=O)[nH]c2nnc(SCC(=O)Nc3ccc(OC)cc3)n12,AC50,[1],"2 µM [rising, full curve]"
O=C(Nc1ccccc1C(=O)OCc1cc(=O)n2ccsc2n1)c1ccc(Cl)cc1,AC50,[1],"0.316 µM [falling, full curve]"
O=C(Nc1ccncc1)Nc1ccccn1,AC50,[1],"15.8 µM [falling, partial curve]"
COc1ccccc1CNC(=O)CCNS(=O)(=O)c1ccc2c(c1)CCCC(=O)N2,AC50,[1],"39.8 µM [falling, partial curve]"
Cc1ccc(Cl)cc1NC(=O)Nc1nnc(N2CCCC(C)C2)s1 (configuration not stated),AC50,[1],"15.8 µM [falling, single point]"
Cc1cc(C)c2oc(C(=O)Nc3ccc(S(=O)(=O)N4CCC(C)CC4)cc3)cc(=O)c2c1,AC50,[1],"2.51 µM [rising, full curve]"
Cc1cc(C)n2c(Nc3ccccc3)c(-c3ccccc3)nc2n1,AC50,[1],"31.6 µM [falling, partial curve]"
CCn1c(=O)cc(OCC(=O)N2CCN(c3ccccc3OC)CC2)c2ccccc21,AC50,[1],"10 µM [falling, partial curve, poor fit]"
CCN(CC)S(=O)(=O)c1csc(C(=O)NCc2ccccc2)c1,AC50,[1],"31.6 µM [falling, single point]"
Cc1cccc(Cn2nnc(C(=O)Nc3cc(C)ccc3C)c2N)c1,AC50,[1],"12.6 µM [falling, partial curve]"
COc1cccc(NC(=O)C2CCN(c3nc4ccccc4nc3C(F)(F)F)CC2)c1,AC50,[1],"31.6 µM [falling, partial curve]"
O=C1C=CC(=O)c2c1ccc1c2ccc2ccccc21,AC50,[1],"10 µM [rising, partial curve] [measured here: IkB-luc green channel]"
Cc1cc(NC(=O)CC2CCCC2)n(-c2nc3ccccc3[nH]2)n1,AC50,[1],"31.6 µM [rising, single point] [measured here: IkB-luc green channel]"
CCOC(=O)c1c(C)oc2nc(C)nc(NCCCN3CCN(c4ccc(F)cc4)CC3)c12,AC50,[1],"6.31 µM [rising, single point]"
O=C(/C=N/O)Nc1ccc(F)cc1,AC50,[1],"3.98 µM [falling, partial curve]"
COc1ccccc1NC(=O)c1ccc2oc(=O)c(S(=O)(=O)c3ccccc3)cc2c1,AC50,measured here: IkB-luc green channel,"7.94 µM [rising, full curve]"
same,AC50,measured here: control luc red channel,"15.8 µM [falling, partial curve]"
CCOc1ccc(C2c3c(oc4ccccc4c3=O)C(=O)N2c2nnc(C)s2)cc1OC (configuration not stated),AC50,[1],"5.01 µM [rising, full curve]"
COc1ccc(-c2cc(C(=O)OCC(=O)N3CCCC3)c3ccccc3n2)cc1,AC50,[1],"25.1 µM [falling, partial curve]"
CCC(=O)Nc1ccc2c(c1)ncn2-c1ccccc1OC,AC50,[1],"15.8 µM [falling, partial curve]"
O=C(CN1C=NS(=O)(=O)c2ccc(C(F)(F)F)cc21)Nc1cccc(C(F)(F)F)c1,AC50,[1],"39.8 µM [falling, single point]"
COc1ccc(Nc2c3c(nc4ccc(NC(=O)/C=C/c5cccc(OC)c5OC)cc24)CCCC3)cc1OC,AC50,[1],"39.8 µM [falling, single point]"
CCOC(=O)c1cccc(NC(=O)CSc2nc3cccnc3n2C)c1,AC50,[1],"10 µM [falling, partial curve]"
CCOc1ccc(C2CC(=O)c3c([nH]c(C(=O)OC4CCC(C)CC4)c3C)C2)cc1 (configuration not stated),AC50,[1],"15.8 µM [falling, single point]"
COC(=O)c1cc(=O)n(Cc2ccco2)c(=Nc2ccc(F)c(Cl)c2)s1,AC50,[1],"3.16 µM [falling, full curve]"
CCn1c(/C(C#N)=C/c2ccccc2Cl)nc2ccccc21,AC50,[1],"6.31 µM [falling, partial curve]"
CCc1cccc(NC(=O)CSc2nc3ccsc3c(=O)n2CC)c1,AC50,[1],"20 µM [falling, partial curve]"
Cc1ccc(CNC(=O)Cn2c(=O)n(Cc3ccccc3)c(=O)c3sc4ccccc4c32)cc1,AC50,[1],"2 µM [rising, full curve]"

# At a glance, some entries already given:
smiles,measurement,setting,value
CCN(CC)S(=O)(=O)c1csc(C(=O)NCc2ccccc2)c1,AC50,[1],"31.6 µM [falling, single point]"
Cc1cccc(Cn2nnc(C(=O)Nc3cc(C)ccc3C)c2N)c1,AC50,[1],"12.6 µM [falling, partial curve]"
